Data published in the supplement of paper PMC10849652.
Some of the results follow.

Chains of the proteins cited; added tags and fusions are not shown. Lines headed by an entry give the natural chain unless they say otherwise; changes in a name come on top.
UniProt Q96D15: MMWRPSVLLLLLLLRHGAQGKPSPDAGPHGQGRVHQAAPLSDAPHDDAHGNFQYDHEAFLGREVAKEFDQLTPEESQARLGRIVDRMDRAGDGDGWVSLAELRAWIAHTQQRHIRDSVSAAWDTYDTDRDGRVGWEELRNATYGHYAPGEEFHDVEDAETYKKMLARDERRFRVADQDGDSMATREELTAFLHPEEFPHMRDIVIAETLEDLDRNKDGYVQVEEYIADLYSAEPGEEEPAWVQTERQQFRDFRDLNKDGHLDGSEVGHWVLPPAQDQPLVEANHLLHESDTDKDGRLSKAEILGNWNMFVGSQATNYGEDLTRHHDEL
UniProt O15258: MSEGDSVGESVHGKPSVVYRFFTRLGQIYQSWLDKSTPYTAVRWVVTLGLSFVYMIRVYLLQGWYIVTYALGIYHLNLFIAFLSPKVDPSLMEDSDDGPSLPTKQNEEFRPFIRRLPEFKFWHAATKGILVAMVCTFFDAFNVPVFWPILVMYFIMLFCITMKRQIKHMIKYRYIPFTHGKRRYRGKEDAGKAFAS
UniProt Q9UKL0, whole entry, looked up: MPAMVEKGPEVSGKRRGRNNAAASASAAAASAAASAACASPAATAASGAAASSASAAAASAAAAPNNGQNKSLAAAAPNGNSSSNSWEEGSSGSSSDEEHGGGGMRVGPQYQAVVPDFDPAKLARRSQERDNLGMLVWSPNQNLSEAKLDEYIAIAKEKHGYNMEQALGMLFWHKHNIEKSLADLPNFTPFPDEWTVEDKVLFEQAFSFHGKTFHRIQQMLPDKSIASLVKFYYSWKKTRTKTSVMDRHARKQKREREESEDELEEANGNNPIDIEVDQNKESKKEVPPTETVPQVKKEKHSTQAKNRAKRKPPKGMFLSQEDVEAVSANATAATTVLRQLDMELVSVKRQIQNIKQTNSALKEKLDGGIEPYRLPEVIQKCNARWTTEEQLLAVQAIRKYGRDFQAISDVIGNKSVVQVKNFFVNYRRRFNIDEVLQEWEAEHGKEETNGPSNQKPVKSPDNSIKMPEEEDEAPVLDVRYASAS
UniProt P18754: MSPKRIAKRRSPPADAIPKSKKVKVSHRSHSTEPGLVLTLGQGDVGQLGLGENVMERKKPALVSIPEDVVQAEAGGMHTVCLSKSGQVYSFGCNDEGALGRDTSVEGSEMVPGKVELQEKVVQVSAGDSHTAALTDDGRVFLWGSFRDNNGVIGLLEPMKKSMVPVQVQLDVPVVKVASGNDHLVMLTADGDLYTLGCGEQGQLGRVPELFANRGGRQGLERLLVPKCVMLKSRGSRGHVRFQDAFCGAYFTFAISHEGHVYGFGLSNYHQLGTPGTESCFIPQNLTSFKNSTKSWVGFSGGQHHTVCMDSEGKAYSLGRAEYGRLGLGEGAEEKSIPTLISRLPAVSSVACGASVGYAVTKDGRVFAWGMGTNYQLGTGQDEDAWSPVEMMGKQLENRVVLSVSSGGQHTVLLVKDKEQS
UniProt Q9Y3B8: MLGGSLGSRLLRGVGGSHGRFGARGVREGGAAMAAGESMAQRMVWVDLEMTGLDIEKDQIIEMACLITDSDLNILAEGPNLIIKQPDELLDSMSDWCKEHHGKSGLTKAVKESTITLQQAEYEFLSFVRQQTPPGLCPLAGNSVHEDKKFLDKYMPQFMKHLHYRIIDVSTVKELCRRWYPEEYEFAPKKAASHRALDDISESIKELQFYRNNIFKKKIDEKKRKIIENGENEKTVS
UniProt P62745, whole entry, looked up: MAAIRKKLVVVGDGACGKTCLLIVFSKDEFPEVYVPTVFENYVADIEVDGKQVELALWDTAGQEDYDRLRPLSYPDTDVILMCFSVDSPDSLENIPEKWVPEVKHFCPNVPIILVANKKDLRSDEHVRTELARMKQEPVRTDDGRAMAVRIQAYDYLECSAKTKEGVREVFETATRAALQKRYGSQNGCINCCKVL
UniProt Q92546: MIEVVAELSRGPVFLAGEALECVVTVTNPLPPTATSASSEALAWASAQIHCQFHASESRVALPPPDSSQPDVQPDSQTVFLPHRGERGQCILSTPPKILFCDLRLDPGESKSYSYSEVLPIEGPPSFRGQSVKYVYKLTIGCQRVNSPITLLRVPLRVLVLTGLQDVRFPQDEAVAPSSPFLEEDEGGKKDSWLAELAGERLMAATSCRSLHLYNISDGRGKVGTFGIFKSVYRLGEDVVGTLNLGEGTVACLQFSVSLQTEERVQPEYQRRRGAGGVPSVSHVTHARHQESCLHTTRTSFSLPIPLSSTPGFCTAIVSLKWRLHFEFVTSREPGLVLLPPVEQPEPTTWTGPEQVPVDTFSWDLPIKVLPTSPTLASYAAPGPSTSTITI
UniProt Q9NWS8: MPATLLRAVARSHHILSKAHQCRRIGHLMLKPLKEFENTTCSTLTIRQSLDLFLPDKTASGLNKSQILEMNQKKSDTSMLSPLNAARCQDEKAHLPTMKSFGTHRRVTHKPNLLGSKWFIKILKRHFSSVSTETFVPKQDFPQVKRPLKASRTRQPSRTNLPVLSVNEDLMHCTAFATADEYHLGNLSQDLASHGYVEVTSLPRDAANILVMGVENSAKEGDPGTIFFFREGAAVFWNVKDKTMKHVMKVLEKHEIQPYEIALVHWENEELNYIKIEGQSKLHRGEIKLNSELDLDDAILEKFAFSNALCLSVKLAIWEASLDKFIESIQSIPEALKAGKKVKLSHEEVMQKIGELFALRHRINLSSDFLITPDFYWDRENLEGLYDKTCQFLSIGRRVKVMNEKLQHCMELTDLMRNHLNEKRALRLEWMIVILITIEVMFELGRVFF
UniProt Q9P0P0: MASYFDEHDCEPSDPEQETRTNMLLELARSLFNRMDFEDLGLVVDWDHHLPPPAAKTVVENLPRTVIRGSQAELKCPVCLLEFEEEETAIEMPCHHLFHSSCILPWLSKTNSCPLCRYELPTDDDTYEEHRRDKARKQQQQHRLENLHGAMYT
UniProt Q8IZV5: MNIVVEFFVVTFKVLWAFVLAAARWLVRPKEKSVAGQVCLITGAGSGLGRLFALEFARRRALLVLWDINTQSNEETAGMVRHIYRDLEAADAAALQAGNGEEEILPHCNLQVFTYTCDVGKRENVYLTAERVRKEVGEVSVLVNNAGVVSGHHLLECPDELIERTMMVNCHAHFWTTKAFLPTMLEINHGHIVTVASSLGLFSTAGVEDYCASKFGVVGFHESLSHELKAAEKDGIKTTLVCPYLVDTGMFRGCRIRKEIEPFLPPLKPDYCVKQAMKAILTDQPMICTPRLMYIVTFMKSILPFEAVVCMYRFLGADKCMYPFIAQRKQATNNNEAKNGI
UniProt Q8IUF8: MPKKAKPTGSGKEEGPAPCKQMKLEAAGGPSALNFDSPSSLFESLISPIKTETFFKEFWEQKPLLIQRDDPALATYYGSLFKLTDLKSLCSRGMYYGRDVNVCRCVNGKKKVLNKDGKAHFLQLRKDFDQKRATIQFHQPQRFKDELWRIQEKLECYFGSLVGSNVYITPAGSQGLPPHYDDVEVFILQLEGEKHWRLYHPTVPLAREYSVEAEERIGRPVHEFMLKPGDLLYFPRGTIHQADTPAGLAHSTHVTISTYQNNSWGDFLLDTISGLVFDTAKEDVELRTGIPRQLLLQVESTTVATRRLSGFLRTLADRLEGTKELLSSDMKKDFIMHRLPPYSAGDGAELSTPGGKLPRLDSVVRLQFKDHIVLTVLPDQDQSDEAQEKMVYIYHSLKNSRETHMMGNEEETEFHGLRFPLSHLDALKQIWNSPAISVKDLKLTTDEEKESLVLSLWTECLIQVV
UniProt Q6JBY9, whole entry, looked up: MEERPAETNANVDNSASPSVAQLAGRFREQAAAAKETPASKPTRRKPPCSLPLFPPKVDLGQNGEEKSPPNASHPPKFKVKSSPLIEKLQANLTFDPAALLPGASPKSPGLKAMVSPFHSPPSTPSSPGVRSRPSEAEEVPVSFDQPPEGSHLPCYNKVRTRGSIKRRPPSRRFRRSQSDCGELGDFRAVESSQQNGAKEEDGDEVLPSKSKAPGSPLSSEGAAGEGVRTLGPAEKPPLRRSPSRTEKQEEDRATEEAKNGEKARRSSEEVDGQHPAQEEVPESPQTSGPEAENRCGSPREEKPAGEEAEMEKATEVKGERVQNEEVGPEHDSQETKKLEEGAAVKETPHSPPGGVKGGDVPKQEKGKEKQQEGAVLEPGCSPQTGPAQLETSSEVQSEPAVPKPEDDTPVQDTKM
UniProt Q5VTR2, whole entry, looked up: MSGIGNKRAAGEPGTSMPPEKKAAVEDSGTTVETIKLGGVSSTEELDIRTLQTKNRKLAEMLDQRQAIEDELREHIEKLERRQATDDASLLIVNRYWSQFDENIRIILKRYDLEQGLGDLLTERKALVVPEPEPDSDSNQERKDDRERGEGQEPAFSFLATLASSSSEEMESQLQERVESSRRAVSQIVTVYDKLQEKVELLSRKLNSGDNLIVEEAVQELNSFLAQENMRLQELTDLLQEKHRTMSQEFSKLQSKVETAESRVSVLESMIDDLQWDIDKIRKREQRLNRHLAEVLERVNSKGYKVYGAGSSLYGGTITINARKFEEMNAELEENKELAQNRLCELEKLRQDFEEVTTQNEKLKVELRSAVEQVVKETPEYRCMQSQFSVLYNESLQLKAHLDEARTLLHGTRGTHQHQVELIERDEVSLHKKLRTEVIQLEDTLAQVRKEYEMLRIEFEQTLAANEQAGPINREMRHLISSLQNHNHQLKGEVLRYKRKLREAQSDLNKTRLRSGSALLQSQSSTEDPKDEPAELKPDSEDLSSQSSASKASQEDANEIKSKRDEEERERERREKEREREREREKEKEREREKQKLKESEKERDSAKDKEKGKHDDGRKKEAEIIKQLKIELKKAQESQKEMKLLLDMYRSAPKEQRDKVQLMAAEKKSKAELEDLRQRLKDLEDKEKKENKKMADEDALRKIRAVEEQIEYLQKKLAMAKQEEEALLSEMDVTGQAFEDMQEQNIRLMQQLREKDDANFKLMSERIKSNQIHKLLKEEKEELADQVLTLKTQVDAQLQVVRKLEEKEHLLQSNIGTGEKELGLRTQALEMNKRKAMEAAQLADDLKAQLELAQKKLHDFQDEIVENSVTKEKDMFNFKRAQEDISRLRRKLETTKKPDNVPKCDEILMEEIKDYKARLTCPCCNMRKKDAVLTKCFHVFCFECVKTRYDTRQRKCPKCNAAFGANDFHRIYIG
UniProt P34096: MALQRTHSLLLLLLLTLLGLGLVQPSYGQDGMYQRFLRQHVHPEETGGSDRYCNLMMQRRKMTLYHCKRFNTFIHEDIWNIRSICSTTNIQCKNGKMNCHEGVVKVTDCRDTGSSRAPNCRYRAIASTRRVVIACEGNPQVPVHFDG
UniProt P35250, whole entry, looked up: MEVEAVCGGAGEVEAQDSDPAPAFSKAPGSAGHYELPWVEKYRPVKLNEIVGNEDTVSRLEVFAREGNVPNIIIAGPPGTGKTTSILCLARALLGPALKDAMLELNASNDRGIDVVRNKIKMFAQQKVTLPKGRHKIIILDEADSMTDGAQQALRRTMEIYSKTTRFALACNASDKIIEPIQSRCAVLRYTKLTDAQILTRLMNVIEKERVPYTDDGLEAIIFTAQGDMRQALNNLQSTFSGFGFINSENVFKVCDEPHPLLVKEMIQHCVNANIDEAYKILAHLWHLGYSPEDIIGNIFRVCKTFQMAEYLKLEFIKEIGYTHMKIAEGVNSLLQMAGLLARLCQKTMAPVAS
UniProt O00584, whole entry, looked up: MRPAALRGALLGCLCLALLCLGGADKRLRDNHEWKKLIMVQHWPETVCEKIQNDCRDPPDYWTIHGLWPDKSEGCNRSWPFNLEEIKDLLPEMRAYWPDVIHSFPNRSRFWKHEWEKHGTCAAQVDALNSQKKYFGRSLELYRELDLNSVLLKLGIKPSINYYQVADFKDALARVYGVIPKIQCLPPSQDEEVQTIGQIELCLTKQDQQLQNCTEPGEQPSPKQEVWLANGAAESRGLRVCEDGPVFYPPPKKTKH
UniProt Q9H0Z9: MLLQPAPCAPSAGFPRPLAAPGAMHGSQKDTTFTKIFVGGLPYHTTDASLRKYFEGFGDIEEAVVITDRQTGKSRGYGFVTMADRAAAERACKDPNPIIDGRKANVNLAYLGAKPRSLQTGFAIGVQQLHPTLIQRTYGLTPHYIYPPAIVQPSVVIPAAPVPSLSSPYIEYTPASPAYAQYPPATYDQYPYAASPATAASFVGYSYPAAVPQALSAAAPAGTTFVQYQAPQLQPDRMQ
UniProt Q96AA3: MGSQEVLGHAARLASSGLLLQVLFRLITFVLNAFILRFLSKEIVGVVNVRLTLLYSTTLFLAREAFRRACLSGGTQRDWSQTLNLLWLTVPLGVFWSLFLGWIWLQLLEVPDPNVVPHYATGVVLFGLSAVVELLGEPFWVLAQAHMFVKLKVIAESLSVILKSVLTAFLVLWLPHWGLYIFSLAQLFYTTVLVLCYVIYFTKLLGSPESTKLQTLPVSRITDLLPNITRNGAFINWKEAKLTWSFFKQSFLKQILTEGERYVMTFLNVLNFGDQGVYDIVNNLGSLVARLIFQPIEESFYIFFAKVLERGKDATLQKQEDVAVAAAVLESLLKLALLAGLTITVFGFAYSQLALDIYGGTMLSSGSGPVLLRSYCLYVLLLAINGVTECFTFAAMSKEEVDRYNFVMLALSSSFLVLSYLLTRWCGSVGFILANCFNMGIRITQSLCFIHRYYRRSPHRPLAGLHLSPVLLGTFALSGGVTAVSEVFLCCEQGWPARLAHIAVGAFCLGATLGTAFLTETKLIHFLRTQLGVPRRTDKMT

Tests used:
Experiment in all cases: log2 fold change, soluble protein after heating vs DMSO (PISA); higher = thermal stabilisation; K562 cells, 10 uM, 30 min; active = over 0.2 and 3.5 SD of the protein, either way, in both replicates (recomputed)
erlotinib = compound: C#Cc1cccc(Nc2ncnc3cc(OCCOC)c(OCCOC)cc23)c1 [erlotinib]
In short: (§1)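 Thermal stability values are relative to control samples and come from duplicates. They are expressed as log2 fold changes. For measurement, K562 cells (2×10^6 cells/mL) received 10 μM compound for 30 min, and aliquots were heated for 3 min over 48°C-58°C, pooled, and extracted at 4°C in PBS with 0.5% NP-40. Soluble protein, the supernatant after 21,000xg for 90 min, was quantified by TMTpro 16plex LC-MS/MS with equalised channel sums.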

[1] = compound: C/C(=N\NC(=O)C1=CC(=CC=C1)S(=O)(=O)N2CCOCC2)/C3=C(C=CC(=C3)Cl)O
In short: as §1

[2] = compound: C1=CC(=C(C=C1Cl)C2=NC3=NC=CN=C3C(=N2)NC4=CC=NC=C4)F
In short: as §1

[3] = compound: C1=CC(=CC=C1C2=NC3=C(N2)C=C(C=C3)C(=O)N)OC4=CC=C(C=C4)Cl
In short: as §1

[4] = compound: C1=CC2=C(C=CC(=C2)/C=C\3/C(=O)NC(=NCC4=CC=CS4)S3)N=C1
In short: as §1

[5] = compound: C1=CC2=NC=CN=C2C=C1/C=C/3\C(=O)NC(=O)S3
In short: as §1

[6] = compound: C1=CC=C(C=C1)C2=NC(=C(N2)C3=CC=NC=C3)C4=CC(=C(C=C4)Cl)O
In short: as §1

[7] = compound: C1=CC=C2C(=C1)C3=NNC4=CC=CC(=C43)C2=O
In short: as §1

[8] = compound: C1CCN(C1)C(=O)NC2=CC=CC(=C2)NC3=NC=C(C(=N3)NCCC4=CN=CN4)Br
In short: as §1

[9] = compound: C1CN(CCC1(CC2=CC=C(C=C2)Cl)N)C3=NC=NC4=C3C=CN4
In short: as §1

Measured: log2 fold change

RIC1 (UniProt Q4ADV7)
inactive: erlotinib 0.065 | [1] -0.172 | [2] -0.086 | [3] 0.056 | [4] 0.154 | [5] -0.029 | [6] -0.019 | [7] 0.22

RCL1 (UniProt Q9Y2P8)
inactive: erlotinib -0.144 | [1] -0.098 | [2] -0.399 | [3] 0.015 | [4] -0.064 | [5] -0.015 | [6] -0.003 | [7] 0.086 | [8] 0.069 | [9] -0.168

RCN3 (UniProt Q96D15)
inactive: erlotinib 0.033 | [1] 0.013 | [2] 0.058 | [3] 0.048 | [4] 0.03 | [5] -0.029 | [6] -0.057 | [7] -0.023 | [8] 0.07 | [9] -0.103

RER1 (UniProt O15258)
inactive: erlotinib 0.009 | [1] -0.022 | [2] 0.003 | [3] -0.023 | [4] -0.042 | [5] 0.07 | [6] 0.04 | [7] -0.013 | [8] -0.028 | [9] 0.024

RHAG (UniProt Q02094)
inactive: erlotinib -0.003 | [1] 0.036 | [2] -0.025 | [3] -0.022 | [4] -0.086 | [5] 0.088 | [6] 0.218 | [7] 0.072 | [8] 0.015 | [9] 0.032

RGS14 (UniProt O43566)
inactive: erlotinib 0.156 | [1] -0.423 | [2] -0.165 | [3] -0.14 | [4] 0.414 | [5] -0.114 | [6] -0.229 | [7] -0.042 | [8] 0.2 | [9] -0.085

RCOR1 (UniProt Q9UKL0)
inactive: erlotinib 0.033 | [1] 0.069 | [2] -0.043 | [3] -0.056 | [4] 0.134 | [5] -0.013 | [6] 0.076 | [7] -0.011 | [8] -0.006 | [9] -0.043

RCC1 isoform 2 (UniProt P18754)
inactive: erlotinib 0.158 | [1] 0.195 | [2] 0.11 | [3] 0.03 | [4] 0.105 | [5] -0.004 | [6] -0.003 | [7] 0.018 | [8] -0.09 | [9] 0.011

REXO2 (UniProt Q9Y3B8)
inactive: erlotinib -0.002 | [1] 0.024 | [2] 0.013 | [3] 0.03 | [4] 0.026 | [5] 0.013 | [6] 0.013 | [7] 0.022 | [8] 0.027 | [9] 0.035

RHOB (UniProt P62745)
inactive: erlotinib -0.11 | [1] 0.018 | [2] 0.165 | [3] -0.006 | [4] -0.097 | [5] 0.006 | [6] 0.074 | [7] -0.102 | [8] -0.056 | [9] -0.022

Copied from the listing (2 entries):
RCN3 (UniProt Q96D15)
inactive: erlotinib 0.033 | [1] 0.013 | [2] 0.058 | [3] 0.048 | [4] 0.03 | [5] -0.029 | [6] -0.057 | [7] -0.023 | [8] 0.07 | [9] -0.103

RER1 (UniProt O15258)
inactive: erlotinib 0.009 | [1] -0.022 | [2] 0.003 | [3] -0.023 | [4] -0.042 | [5] 0.07 | [6] 0.04 | [7] -0.013 | [8] -0.028 | [9] 0.024

Next part

RGP1 (UniProt Q92546)
inactive: erlotinib 0.145 | [1] -0.002 | [2] 0.111 | [3] 0.008 | [4] 0.326 | [5] 0.096 | [6] -0.111 | [7] -0.017 | [8] 0.232 | [9] 0.068

RMND1 (UniProt Q9NWS8)
inactive: erlotinib 0.029 | [1] 0.117 | [2] 0.036 | [3] 0.008 | [4] 0.026 | [5] 0 | [6] -0.023 | [7] -0.041 | [8] 0.026 | [9] 0.009

RNF181 (UniProt Q9P0P0)
inactive: erlotinib 0.056 | [1] -0.064 | [2] 0.068 | [3] -0.029 | [4] -0.003 | [5] 0.048 | [6] -0.012 | [7] -0.023 | [8] -0.001 | [9] -0.011

RNF114 (UniProt Q9Y508)
inactive: erlotinib 0.02 | [1] 0.036 | [2] 0.048 | [3] -0.048 | [4] -0.001 | [5] 0.019 | [6] 0.005 | [7] -0.03 | [8] -0.014 | [9] 0.025

RDH10 (UniProt Q8IZV5)
inactive: erlotinib 0.122 | [1] 0.065 | [2] 0.024 | [3] 0.003 | [4] 0.204 | [5] -0.035 | [6] 0.077 | [7] 0.039 | [8] -0.008 | [9] 0.235

RHOXF2 (UniProt Q9BQY4)
inactive: erlotinib -0.067 | [1] -0.137 | [2] -0.002 | [3] 0.003 | [4] -0.06 | [5] 0.054 | [6] 0.06 | [7] -0.026 | [8] 0.036 | [9] 0.011

RBMX (UniProt P38159)
inactive: erlotinib -0.103 | [1] -0.101 | [2] -0.606 | [3] 0.064 | [4] -0.141 | [5] 0.04 | [6] -0.073 | [7] -0.032 | [8] 0.074 | [9] -0.193

RIOX2 (UniProt Q8IUF8)
inactive: erlotinib 0.069 | [1] -0.29 | [2] 0 | [3] 0.005 | [4] -0.073 | [5] -0.032 | [6] 0.037 | [7] 0.051 | [8] 0.053 | [9] -0.018

RFC4 (UniProt P35249)
inactive: erlotinib 0.013 | [1] 0.046 | [2] 0.111 | [3] 0.012 | [4] -0.006 | [5] 0.015 | [6] 0.029 | [7] 0.01 | [8] -0.043 | [9] 0.013

RING1 (UniProt Q06587)
inactive: erlotinib -0.004 | [1] -0.242 | [2] 0.094 | [3] 0.046 | [4] 0.068 | [5] -0.015 | [6] -0.072 | [7] 0.12 | [8] -0.033 | [9] 0.02

RCSD1 (UniProt Q6JBY9)
inactive: erlotinib 0.047 | [1] -0.133 | [2] 0.054 | [3] -0.008 | [4] -0.044 | [5] 0.098 | [6] -0.113 | [7] 0.032 | [8] 0.039 | [9] 0.074

RCCD1 (UniProt A6NED2)
inactive: erlotinib 0.052 | [1] -0.04 | [2] 0.053 | [3] -0.056 | [4] -0.018 | [5] 0.023 | [6] 0.004 | [7] -0.009 | [8] 0.065 | [9] 0.159

RNF20 (UniProt Q5VTR2)
inactive: erlotinib 0.035 | [1] 0.071 | [2] 0.06 | [3] -0.037 | [4] 0.153 | [5] 0.036 | [6] -0.259 | [7] -0.111 | [8] -0.033 | [9] -0.165

RNASE4 (UniProt P34096)
inactive: erlotinib -0.146 | [1] -0.017 | [2] 0.338 | [3] 0.037 | [4] -0.037 | [5] -0.019 | [6] -0.016 | [7] -0.111 | [8] -0.069 | [9] 0.099

RIOK3 (UniProt O14730)
inactive: erlotinib 0.037 | [1] 0.014 | [2] 0.062 | [3] 0.003 | [4] -0.019 | [5] 0.048 | [6] -0.033 | [7] 0.02 | [8] 0.024 | [9] -0.025

RDH14 (UniProt Q9HBH5)
inactive: erlotinib -0.013 | [1] 0.024 | [2] -0.031 | [3] 0.162 | [4] -0.006 | [5] 0.019 | [6] 0.112 | [7] 0.103 | [8] -0.06 | [9] 0.086

RFC2 (UniProt P35250)
inactive: erlotinib 0.023 | [1] -0.011 | [2] 0.058 | [3] 0 | [4] 0.011 | [5] 0.017 | [6] 0.032 | [7] 0.005 | [8] 0.028 | [9] 0.007

RNASET2 (UniProt O00584)
inactive: erlotinib 0.027 | [1] -0.007 | [2] -0.006 | [3] 0.002 | [4] 0.012 | [5] -0.014 | [6] -0.001 | [7] -0.027 | [8] 0.034 | [9] 0.052

RBM38 (UniProt Q9H0Z9)
inactive: erlotinib -0.026 | [1] 0.091 | [2] 0.094 | [3] -0.019 | [4] 0.118 | [5] 0.138 | [6] 0.061 | [7] -0.076 | [8] -0.079 | [9] 0.065

RFT1 (UniProt Q96AA3)
inactive: erlotinib 0.015 | [1] -0.032 | [2] 0.021 | [3] 0.012 | [4] 0.034 | [5] 0.025 | [6] -0.036 | [7] -0.024 | [8] -0.029 | [9] 0.099
